Test results reported in article PMC9688267.
These are yes or no findings as the source states them, for the method shown. Binding seen in cells or lysates may run through a third protein. Here binding means that the protein was enriched with, or labelled near, the bait; the list need not be complete. Blank lines part the entries; values can stand above or below the molecule they belong to.

By UniProt entry, the sequences of proteins in these tests, tags left out.
UniProt O35449: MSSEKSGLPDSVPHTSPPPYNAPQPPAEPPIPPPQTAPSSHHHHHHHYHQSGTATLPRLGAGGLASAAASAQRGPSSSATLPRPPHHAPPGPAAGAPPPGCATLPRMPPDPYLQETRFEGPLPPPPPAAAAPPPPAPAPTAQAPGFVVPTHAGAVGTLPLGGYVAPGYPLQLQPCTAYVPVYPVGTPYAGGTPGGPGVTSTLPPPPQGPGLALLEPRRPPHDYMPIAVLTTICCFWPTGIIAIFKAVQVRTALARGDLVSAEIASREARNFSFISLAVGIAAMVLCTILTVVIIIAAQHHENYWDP
UniProt O88602: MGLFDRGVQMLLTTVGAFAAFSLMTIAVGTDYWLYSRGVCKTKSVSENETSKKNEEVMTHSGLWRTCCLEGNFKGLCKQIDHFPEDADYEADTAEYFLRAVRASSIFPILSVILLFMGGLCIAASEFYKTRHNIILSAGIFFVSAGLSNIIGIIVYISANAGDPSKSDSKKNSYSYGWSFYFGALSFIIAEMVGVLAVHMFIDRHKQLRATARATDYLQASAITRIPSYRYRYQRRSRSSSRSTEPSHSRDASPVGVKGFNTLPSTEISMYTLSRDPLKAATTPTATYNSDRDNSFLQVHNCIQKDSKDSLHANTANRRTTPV

Key:
[1] = target: Synapse differentiation-induced protein 4 (mouse (endogenous in hippocampus)) (UniProt O35449); experiment: affinity purification with mass spectrometry; IP with anti-TARP-γ2/(4)/8 or anti-SynDIG4 from wildtype mouse hippocampus extract; antibody epitope blocking and empty bead controls; n = 2 per antibody
[2] = target: Synapse differentiation-induced protein 4 (mouse (endogenous in hippocampus)) (UniProt O35449); experiment: affinity purification with mass spectrometry + native gel or EMSA; IP-BN-PAGE-MS: IP with anti-TARP-γ2/8 or anti-SynDIG4 from 30 mg hippocampus P2+M, elution with epitope peptide, 3–12% Blue Native PAGE at 4 °C, 70 slices analysed by MS; co-migration above the 720 kDa marker
[3] = target: T1, Transmembrane AMPAR regulatory protein gamma-8 (mouse (endogenous in hippocampus)) (UniProt Q8VHW2); experiment: affinity purification with mass spectrometry; IP with anti-TARP-γ2/(4)/8 or anti-SynDIG4 from wildtype mouse hippocampus extract; antibody epitope blocking and empty bead controls; n = 2 per antibody
T1 sequence: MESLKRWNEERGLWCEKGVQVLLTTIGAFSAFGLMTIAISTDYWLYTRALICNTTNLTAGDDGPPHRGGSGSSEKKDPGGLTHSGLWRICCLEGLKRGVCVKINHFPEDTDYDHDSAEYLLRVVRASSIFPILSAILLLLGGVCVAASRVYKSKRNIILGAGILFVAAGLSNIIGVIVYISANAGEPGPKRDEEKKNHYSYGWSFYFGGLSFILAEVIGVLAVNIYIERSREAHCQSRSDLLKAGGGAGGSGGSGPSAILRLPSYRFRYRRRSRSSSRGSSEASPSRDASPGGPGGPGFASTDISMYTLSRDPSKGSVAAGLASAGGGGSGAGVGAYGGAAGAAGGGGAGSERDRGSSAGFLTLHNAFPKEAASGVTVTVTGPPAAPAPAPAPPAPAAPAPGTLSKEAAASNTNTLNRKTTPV

Molecule: Transmembrane AMPAR regulatory protein gamma-2 (from UniProt O88602 1-323)
binding [1]: binds

B1: Ras-related protein Rap-2b (protein, UniProt P61226 1-183)
chain: MREYKVVVLGSGGVGKSALTVQFVTGSFIEKYDPTIEDFYRKEIEVDSSPSVLEILDTAGTEQFASMRDLYIKNGQGFILVYSLVNQQSFQDIKPMRDQIIRVKRYERVPMILVGNKVDLEGEREVSYGEGKALAEEWSCPFMETSAKNKASVDELFAEIVRQMNYAAQPNGDEGCCSACVIL
binding [1]: binds

B4: Cornichon homolog 2 (protein, UniProt O35089 1-160)
chain: MAFTFAAFCYMLTLVLCASLIFFVIWHIIAFDELRTDFKNPIDQGNPARARERLKNIERICCLLRKLVVPEYSIHGLFCLMFLCAAEWVTLGLNIPLLFYHLWRYFHRPADGSEVMYDAVSIMNADILNYCQKESWCKLAFYLLSFFYYLYSMVYTLVSF
binding [3]: binds

Further lines, results first:

binding [2]: binds | binding [1]: binds
B2: Transmembrane AMPAR regulatory protein gamma-8 (protein, UniProt Q8VHW2 1-423)
chain: T1 sequence

binding [1]: binds | binding [3]: binds
B3: Cornichon homolog 3 (protein, UniProt Q6ZWS4 1-160)
chain: MAFTFAAFCYMLSLVLCAALIFFAIWHIIAFDELRTDFKSPIDQCNPVHARERLRNIERICFLLRKLVLPEYSIHSLFCIMFLCAQEWLTLGLNVPLLFYHFWRYFHCPADSSELAYDPPVVMNADTLSYCQKEAWCKLAFYLLSFFYYLYCMIYTLVSS
